Test results published in article PMC7929561.
No constants are given. Whether binding was seen depends on the method and setting. Binding seen in cells or lysates may run through a third protein. A yes stands for co-enrichment or nearness to the bait. Other partners may have been found. Each block holds one binder with its values, some of them ahead of it.

Target: GFP-tagged, full-length Dystroglycan (Dg::GFP) (Drosophila melanogaster)
Assay: affinity purification with mass spectrometry; Dg::GFP immunoprecipitated with GFP-Trap beads (anti-GFP) from lysates of adult fly heads in RIPA buffer (50 mM Tris-HCl pH 7.5, 125 mM NaCl, 0.5% NP40, 0.25% Na-deoxycholate); SDS-PAGE, in-gel Lys-C digestion, LC-MS/MS; proteins enriched at least twofold over control in two biological replicates taken as Dg interactors

binding: binds
B1: Sec5 (protein, UniProt Q9VQQ9 1-894)
chain: MAPQPVVTGLSPKEGPPGTRVIIRGEFLGTRVQDLIGLKICGSDCLLSAEWKSPNKIIARTGPAKGKGDIIVTTLSGGVGTSTVQFRAYHETIGPLKESAVWIEESPSQNFAWGRRTLAQSGLTQEDPLGLSIEGNEQKIPEDLRDLFPEACGDLSQEHFSPAWFLLENHLATSFEDLKAGLSYLKRKVESQKEGQLSFLKSNAGSVIDQLDTLMNIRDKLQEDVKLHGNETLNILETSIENSISESQKIFTDVLVRKEKADSTRSVLFALSRHKFLFCLPNSVDRRAKAGEYDIVVNDYSRAKNLFGKTEIPIFRKVLEEVDHRILSIRKQLHEKVVKMPQSVEQQKKLIKALISLELQQSGTPIGDKLRNIDPAWDAIEARAKYLEWTFRQTFDQHTSKDSGAQEKAKNRDSSQAPNRVNFCEELCDIAASQLPDLWRLGQLYFTGELRGPHDPKPGDFKRMVLNAIEKFCVYLRLAILIATDQRALRQSSGLAWPIGSASATHQFLPWIPQCLRFTRIAYATLISLDLPSEALDIIQKLIDEVRLFCFSIIFKRATDRCKKLGSQETWELGVEEYPGATLLPAALETLLIETLDEVQSVCMQRETREGNLLEPQSDGQREVTQRLQEFLSAFSAVIEELAFHSHDEETPTHNVSQLLGFPNAQQPDSVAGSGGAAAVTWEQRMLCCLANYAYCNKIFFPRLGDIFVRYGYPLPTLAIETARYTVNQLFTNLLEEYVEHKGDPLVGTIEPSMYLGRFQWDHEMEIGQLRPYAHECCDNLVGVYSEIYSISPALLRPILESIVQTISEELARLMSCVQRFSFTGAIQAHVDIRLLRDSLEGYVNETAKNYFMEALEAINPPLSGEQKRKADEILERVKRNMRLQLLCFSVKDP

binding: binds
B2: Amphiphysin (Amph) (protein, UniProt Q7KLE5 1-602)
chain: MTENKGIMLAKSVQKHAGRAKEKILQNLGKVDRTADEIFDDHLNNFNRQQASANRLQKEFNNYIRCVRAAQAASKTLMDSVCEIYEPQWSGYDALQAQTGASESLWADFAHKLGDQVLIPLNTYTGQFPEMKKKVEKRNRKLIDYDGQRHSFQNLQANANKRKDDVKLTKGREQLEEARRTYEILNTELHDELPALYDSRILFLVTNLQTLFATEQVFHNETAKIYSELEAIVDKLATESQRGSNTLRKQTSNPIKTSSPVQSPVNKLNNANINSNYQNQITTNGGSSLANSPTSTSSSLQEPRFDSVSSTPEPRPESPAAALVSATPSSPVENGVTTKSLERPELSGLNASAKATTTTQTSPTEDKAVVSEAVKPSETEGAAVAASVTPAPPATPAQINGNNNEPSIVKEGGKQPKELPSTTSNAEAAAEAAANNGNSIEEHKQKKLGNDTTVTATETVTVTQHSVTSTDTDNIVTISDTNTDTDTKTSTGTSQKGRPVPVVNRHSVNNLNKNPFEDDDERIYEVPADANTADLPPGVLYRVKATYGYAKEDVDELSFEIGDLIRVIEYDDPEDQEEGWLMGQKEGTNEKGLFPANFTRPI
